This note sets out measurements from PMC6877536.

Results are given in words; binding and its absence hold for the method and conditions named. Binding seen in cells or lysates may run through a third protein. Some binding calls cover weakened binding; strength is not graded here. For part of these data: Tags and fused reporters may be left off the sequences shown.

One assay addresses T1, GST-SUV39H1 (UniProt O43463).
T1 sequence: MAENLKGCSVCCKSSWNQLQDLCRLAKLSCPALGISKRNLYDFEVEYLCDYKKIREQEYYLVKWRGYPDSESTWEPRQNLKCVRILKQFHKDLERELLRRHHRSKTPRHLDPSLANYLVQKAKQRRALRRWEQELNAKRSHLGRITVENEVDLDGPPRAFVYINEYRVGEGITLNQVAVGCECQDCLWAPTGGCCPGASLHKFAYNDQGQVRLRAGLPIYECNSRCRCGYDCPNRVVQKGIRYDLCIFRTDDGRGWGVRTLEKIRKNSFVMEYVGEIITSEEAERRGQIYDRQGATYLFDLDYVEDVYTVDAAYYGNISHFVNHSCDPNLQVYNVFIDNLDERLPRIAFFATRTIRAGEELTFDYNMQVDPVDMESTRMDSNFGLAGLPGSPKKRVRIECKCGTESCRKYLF
Put plainly: pull-down; purified GST-SUV39H1 on glutathione Sepharose 4B beads incubated with total lysates of HEK293A cells, 4 °C overnight; washed with TENT buffer (0.5% NP40, 20 mM Tris-HCl pH 7.4, 0.1 mM EDTA, 300 mM NaCl); western blot; only the target purified. A general note: In western blotting, separated proteins are transferred to a membrane and probed.

In assay [1] the target is T2, Kindlin-2 (mouse cardiac tissue) (mouse (endogenous in heart tissue)) (UniProt Q8CIB5).
T2 sequence: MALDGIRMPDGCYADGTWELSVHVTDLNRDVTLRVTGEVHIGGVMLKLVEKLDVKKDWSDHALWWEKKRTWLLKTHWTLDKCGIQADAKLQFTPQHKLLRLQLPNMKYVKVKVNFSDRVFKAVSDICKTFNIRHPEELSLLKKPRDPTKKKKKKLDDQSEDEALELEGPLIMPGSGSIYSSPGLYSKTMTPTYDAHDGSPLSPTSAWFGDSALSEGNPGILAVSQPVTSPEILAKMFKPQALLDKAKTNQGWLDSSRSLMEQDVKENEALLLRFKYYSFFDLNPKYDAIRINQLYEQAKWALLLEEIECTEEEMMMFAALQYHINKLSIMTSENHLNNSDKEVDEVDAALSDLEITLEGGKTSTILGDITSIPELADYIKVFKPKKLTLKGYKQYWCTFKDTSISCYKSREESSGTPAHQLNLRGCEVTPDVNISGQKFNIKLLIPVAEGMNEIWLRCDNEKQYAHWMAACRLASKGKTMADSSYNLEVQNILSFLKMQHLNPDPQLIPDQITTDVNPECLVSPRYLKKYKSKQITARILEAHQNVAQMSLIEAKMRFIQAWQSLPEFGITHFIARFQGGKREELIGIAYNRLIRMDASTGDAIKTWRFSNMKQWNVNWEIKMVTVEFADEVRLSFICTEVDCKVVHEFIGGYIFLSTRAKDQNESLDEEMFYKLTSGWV
Put plainly: co-IP; lysates from heart tissue of wild-type mice; anti-Kindlin-2 and anti-SUV39H1 antibodies, 4 °C overnight, protein A/G agarose beads, NP40 buffer washes, western blot.

In assay [2] the target is Kindlin-2 (human (endogenous in HEK293A)) (UniProt Q96AC1). The assay can be described thus: co-IP; HEK293A cell lysates; precipitated with anti-Kindlin-2 antibody, protein A/G agarose beads, western blot.

For Kindlin-2 (from UniProt Q96AC1 1-680), the binding entry with GST-SUV39H1 is “binds”.

B1: SUV39H1 (mouse cardiac tissue) (protein, UniProt O54864 1-412)
chain: MAENLKGCSVCCKSSWNQLQDLCRLAKLSCPALGVSKKNLYDFEVEYLCDYKKIREQEYYLVKWRGYPDSENTWEPRQNLKCIRVLKQFHKDLERELVRRHRRSKPPRHLDPNLANYLVQKAKQRRALQRWEQELNAKRSHLGRITVENEVDLDGPPRSFVYINEYRVGEGITLNQVAVGCECQDCLLAPTGGCCPGASLHKFAYNDQGQVRLKAGQPIYECNSRCCCGYDCPNRVVQKGIRYDLCIFRTNDGRGWGVRTLEKIRKNSFVMEYVGEIITSEEAERRGQIYDRQGATYLFDLDYVEDVYTVDAAYYGNISHFVNHSCDPNLQVYNVFIDNLDERLPRIAFFATRTIWAGEELTFDYNMQVDPVDMESTRMDSNFGLAGLPGSPKKRVRIECKCGTTACRKYLF
Regarding B1, the binding result in assay [1] is recorded as “binds”.

B2: histone methyltransferase supperssor of variegation3-9 homolog1 (SUV39H1) (protein, UniProt O43463 1-412)
chain: MAENLKGCSVCCKSSWNQLQDLCRLAKLSCPALGISKRNLYDFEVEYLCDYKKIREQEYYLVKWRGYPDSESTWEPRQNLKCVRILKQFHKDLERELLRRHHRSKTPRHLDPSLANYLVQKAKQRRALRRWEQELNAKRSHLGRITVENEVDLDGPPRAFVYINEYRVGEGITLNQVAVGCECQDCLWAPTGGCCPGASLHKFAYNDQGQVRLRAGLPIYECNSRCRCGYDCPNRVVQKGIRYDLCIFRTDDGRGWGVRTLEKIRKNSFVMEYVGEIITSEEAERRGQIYDRQGATYLFDLDYVEDVYTVDAAYYGNISHFVNHSCDPNLQVYNVFIDNLDERLPRIAFFATRTIRAGEELTFDYNMQVDPVDMESTRMDSNFGLAGLPGSPKKRVRIECKCGTESCRKYLF
As for B2, in assay [2], the binding result is “binds”.
